# Values of other authors as cited in patent US11766060B2, “Compositions comprising mogrosides, steviol glycosides and glycosylated derivatives thereof and methods of enhancing the mouthfeel or sweetness of consumables” (Sweet Green Fields, LLC, priority 2016, dated 2023).
# At least one compound was matched to its structure with a doubt left.
# Details: cited from earlier work
row,Structure (SMILES),natural sweetness
1,C[C@H](CC[C@@H](O[C@@H]1O[C@H](CO)[C@@H](O)[C@H](O)[C@H]1O[C@@H]1O[C@H](CO)[C@@H](O)[C@H](O)[C@H]1O)C(C)(C)O)[C@H]1CC[C@@]2(C)[C@H]3CC=C4[C@@H](CC[C@H](O[C@@H]5O[C@H](CO[C@@H]6O[C@H](CO)[C@@H](O)[C@H](O)[C@H]6O)[C@@H](O)[C@H](O)[C@H]5O)C4(C)C)[C@]3(C)[C@H](O)C[C@]12C [mogroside IV],126 times of that of sugar
2,"C[C@H](CC[C@@H](O[C@@H]1O[C@H](CO[C@@H]2O[C@H](CO)[C@@H](O)[C@H](O)[C@H]2O)[C@@H](O)[C@H](O)[C@H]1O[C@@H]1O[C@H](CO)[C@@H](O)[C@H](O)[C@H]1O)C(C)(C)O)[C@H]1CC[C@@]2(C)[C@@H]3CC=C4[C@@H](CC[C@H](O[C@@H]5O[C@H](CO[C@@H]6O[C@H](CO)[C@@H](O)[C@H](O)[C@H]6O)[C@@H](O)[C@H](O)[C@H]5O)C4(C)C)[C@]3(C)[C@H](O)C[C@]12C [mogroside V, Mogroside V]",256-344 times of that of sugar
